Laboratory results: PubChem BioAssay AID504784 (Drosophila RNAi Screening Center, 2011)

- Screen: 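Fly genes whose silencing alters how much lipid cells keep in droplets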 (primary screen)
- System: Drosophila Kc167 embryonic cells
- Knock-down reagent: long dsRNA against Drosophila genes, about 250 ng dsRNA per well
- Timing: 4 days
- Treatment: cells fed 400 µM oleic acid bound to BSA
- Measured: 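Cells imaged and segmented; ratio of lipid droplet area to nuclear area, log-transformed, then normalised as a B-score over the screen; higher means more stored lipid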
- Reading the numbers: droplet/nuclear area B-score: higher = more stored lipid (overstorage)
The deposit covers about 17,000 reagents; this is a random part of those with a known target gene and a result. 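Each column is one replicate's B-score; the combined score over replicates was not deposited, so single values may mislead.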 Reagents against one gene are numbered here. A plus sign joins genes that one reagent is predicted to hit. Reagent sequences are not shown.

no.	gene knocked down	reagent	droplet/nuclear area B-score, replicate 1	droplet/nuclear area B-score, replicate 2	droplet/nuclear area B-score, replicate 3
1	Ugt35E1 (UDP-glycosyltransferase family 35 member E1)	1	-1.68	-0.112	
2	Neurl4 (Neuralized E3 ubiquitin protein ligase 4)	1	0.482	-1.59	1.03
3	toc (toucan)	1	-1.51	-1.78	
4	toc (toucan)	2	-0.576	0.138	
5	toc (toucan)	3	0.0435	0.874	
6	CG17118	1	-0.804	-0.517	
7	CG12692	1	-3.61	-1.04	
8	CG13675	1	-0.117	-1.76	
9	CG13675	2	1.1	-0.495	
10	Non3 (Novel nucleolar protein 3)	1	0.197	0.425	
11	CG14566	1	0.395	0.431	
12	mts (microtubule star)	1	-0.248	0.347	
13	GluRIB + CG42509 (retired record)	1	0.656	-0.34	
14	GluRIB + CG42509 (retired record)	2	0.00201	0.223	
15	stv (starvin)	1	-2.63	0.453	1.05
16	stv (starvin)	2	1.65	0.439	
17	CecA1 (Cecropin A1)	1	0.273		
18	pst (pastrel)	1	-0.408		
19	ome (omega)	1	-0.489	-0.0419	
20	ome (omega)	2	3.07	1.88	
21	ome (omega)	3	-0.713	-0.407	
22	CG42506 (retired record) + CG43759	1	-0.235	1.61	
23	CG42506 (retired record) + CG43759	2	-1.53	-0.71	
24	Cyp6a14 (retired record)	1	0.27	0.489	
25	CG12811	1	0.0502	0.0642	
26	Cyp316a1 (Cytochrome P450 316a1)	1	0.363	-0.346	
27	Tmlh (Trimethyllysine hydroxylase)	1	0.0663	-0.00807	
28	CG9263	1	-0.879	-1.16	
29	CG6937 + btn	1	1.61	0.227	
30	a10 (antennal protein 10)	1	2.3	0.1	
31	CG32554	1	-0.45	-0.186	
32	Rsbp15 (Radial spoke binding protein 15)	1	4.77	1.07	
33	CecA2 (Cecropin A2)	1	-0.78	-0.702	
34	CG3631	1	-0.135	5.2	
35	CG13690	1	0.158	0.0557	
36	CG42500	1	1.59	1.97	
37	defl (deflated)	1	3.05	0.87	
38	CG15353	1	-0.0196	-0.911	0.634
39	CCT4 (Chaperonin containing TCP1 subunit 4)	1	1.26	-0.53	
40	LUBEL (Linear Ubiquitin E3 ligase)	1	0.421	-1.34	
41	CG34041	1	1.26	-0.364	
42	CG18063	1	0.015	0.424	
43	JIL-1 (JIL-1 kinase)	1	0.138	-1.11	
44	CG7706	1	0.328	-2.54	
45	CG40486	1	0.447	0.266	
46	repo (reversed polarity)	1	2.74	2.14	
47	repo (reversed polarity)	2	-1.82	-3.51	
48	CG4995	1	0.36	0.237	
49	pb (proboscipedia)	1	-1.61	2.97	
50	pb (proboscipedia)	2	0.0535	0.94	
51	Best1 (Bestrophin 1)	1	-0.681	-0.0477	0.306
52	CG13202	1	-0.145	-0.644	
53	CR31427 (pseudo)	1	-0.0663	1.38	
54	HnRNP-K (Heterogeneous nuclear ribonucleoprotein K)	1	0.617	4.01	0.266
55	HnRNP-K (Heterogeneous nuclear ribonucleoprotein K)	2	-3.09	0.901	
56	Tailor	1	-0.0411	0.212	

5 entries already listed, ordered by “droplet/nuclear area B-score, replicate 1”, high to low:
gene knocked down	reagent	droplet/nuclear area B-score, replicate 1	droplet/nuclear area B-score, replicate 2	droplet/nuclear area B-score, replicate 3
CG13675	2	1.1	-0.495	
GluRIB + CG42509 (retired record)	1	0.656	-0.34	
CG14566	1	0.395	0.431	
Non3 (Novel nucleolar protein 3)	1	0.197	0.425	
mts (microtubule star)	1	-0.248	0.347	
